Out of some 1,400 compounds screened, fewer than 10 were called active.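 Rule for the calls: active = fluorescence-lowering compounds whose fitted half-maximal concentration is at or below ten times the highest valid dose tested; inconclusive = flat curve at 30 to 70% inhibition, or poor fit; inactive = the rest.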 Some of the results follow.
molecular target: Histone deacetylase 3 (Homo sapiens) (UniProt O15379); test: inhibition of human HDAC3 enzymatic activity – biochemical, fluorescence, cherry-picked samples, counter-screen for JMJD2C/GASC1 demethylase inhibitor project, dose response (AID 485318); details: recombinant HDAC3, fluorogenic peptide/trypsin coupled; at 12 µM (top of the series);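 note: enzyme preincubated with compound before substrate and trypsin were added; 0% = neutral control wells and -100% = SAHA positive control wells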

By UniProt entry, the sequences of proteins in these tests, tags left out. Where a name states a change or a piece, a line headed by the entry shows the natural chain unless it says otherwise.
UniProt O15379: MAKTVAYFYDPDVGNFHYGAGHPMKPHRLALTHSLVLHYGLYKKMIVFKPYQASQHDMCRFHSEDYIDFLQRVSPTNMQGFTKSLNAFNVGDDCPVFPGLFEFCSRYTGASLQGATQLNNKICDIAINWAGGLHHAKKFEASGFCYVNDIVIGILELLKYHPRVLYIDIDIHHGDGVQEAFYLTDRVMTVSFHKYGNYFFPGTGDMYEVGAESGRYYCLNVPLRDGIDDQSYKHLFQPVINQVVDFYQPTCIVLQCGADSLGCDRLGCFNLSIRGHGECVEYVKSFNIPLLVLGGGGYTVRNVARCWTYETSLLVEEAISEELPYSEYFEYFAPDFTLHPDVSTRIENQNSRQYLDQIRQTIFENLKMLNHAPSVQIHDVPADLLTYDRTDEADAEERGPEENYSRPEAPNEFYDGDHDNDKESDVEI

SMILES	activity change, negative = inhibition
OCC1=C[C@@H](O)[C@@H]2C=CO[C@@H](O[C@@H]3O[C@H](CO)[C@@H](O)[C@H](O)[C@H]3O)[C@H]12	inactive: -0.962%
COc1ccc(-n2c(C)cc(/C=N/Nc3nnc(C)n3N)c2C)cc1	inactive: -0.352%
Cc1ccc(S(=O)(=O)NCCC(=O)OCC(=O)Nc2ccccc2Cl)cc1	inactive: 0.205%
CC/C(=C/c1sc2ccc(C)cc2[n+]1CCCS(=O)(=O)[O-])SC	inactive: 0.516%
Cc1ccc(CONC(=O)c2cccc([N+](=O)[O-])c2)cc1	inactive: 0.0462%
CC(=O)Nc1ccc(NC(=O)Cn2cnc3c(cnn3C(C)(C)C)c2=O)cc1	inactive: -0.0692%
Cc1ccc(C(=O)CN2C(=O)C(=O)N(Cc3ccccc3)C2=O)cc1	inactive: 0.0826%
O=C(CC(=O)N/N=C/c1c(F)cccc1Cl)NCc1ccccc1	inactive: -0.59%
O=C(NC1CCN(S(=O)(=O)c2ccc(F)cc2)CC1)c1ccc(F)cc1	inactive: -0.0742%
CSC1=N/C(=C\C=C\c2cccs2)C(=O)S1	inactive: -0.264%
S=C(NCc1ccco1)Nc1cccc(Cl)c1	inactive: -1.13%
CCOC(=O)C1(C)NC(c2cccs2)C2C(=O)N(c3ccc(OC)cc3)C(=O)C21 (stereo unspecified)	inactive: 0.328%
N#Cc1nc(COc2ccccc2F)oc1NCCCn1ccnc1	inactive: 0.288%
O=C1c2ccc([N+](=O)[O-])cc2C(=O)N1Cc1cccnc1	inactive: -0.944%
O=C(/C=C/c1ccc2c(c1)OCO2)NCCS(=O)(=O)N1CCN(c2ccc(F)cc2)CC1	inactive: 0.0604%
COc1ccccc1-c1nc(C#N)c(NCc2ccc(F)cc2)o1	inactive: -0.612%
COc1cc2c(cc1CNC[C@H]1O[C@@H](n3cnc4c(N)ncnc43)[C@H](O)[C@@H]1O)OCO2	inactive: 0.502%
C[C@@H]1CN([C@@H](C)CO)C(=O)c2cc(NC(=O)CCN3CCOCC3)ccc2O[C@@H]1CN(C)C(=O)Nc1ccccc1	inactive: -0.267%
Cc1nnc(N/N=C\c2ccc(-c3ccccc3[N+](=O)[O-])o2)n1N	inactive: 0.201%
Cc1ccc(C)c(N(C(=O)c2csnn2)C(C(=O)NC2CCCC2)c2cccnc2)c1 (stereo unspecified)	inactive: -1.01%
COc1cccc(OC)c1C(=O)NC(=S)N1CCOCC1	inactive: 0.0161%

SMILES	activity change, negative = inhibition
N#Cc1ccc(N=c2ssnc2Cl)cc1	inactive: -0.712%
O=C(NCc1cccc(Cl)c1)c1cnn2c1NC(c1ccco1)CC2C(F)(F)F (stereo unspecified)	inactive: -0.0149%
COc1cc(/C=N/Nc2ccccc2)ccc1OC(=O)c1cccs1	inactive: 0.964%
N#CCN1CCC(c2cc(-c3ccco3)n[nH]2)CC1	inactive: 0.338%
Cc1c(C(=O)NCc2cccs2)oc2ccccc12	inactive: 0.326%
CCn1c(=O)c(-c2nc3ccccc3[nH]2)c(O)c2ccccc21	inactive: 0.252%
CS(=O)(=O)N(CC(=O)NCc1ccco1)c1ccccc1Cl	inactive: 0.299%
CCOC(=O)C1=C(C)NC2=C(C(=O)CCC2)C1c1coc2ccccc2c1=O (stereo unspecified)	inactive: 0.15%
COc1ccc(NC(=O)N(C)C[C@@H]2Oc3c(NC(=O)Nc4c(C)noc4C)cccc3C(=O)N([C@@H](C)CO)C[C@@H]2C)cc1	inactive: -0.0525%
C[C@H](CO)N1C[C@H](C)[C@H](CN(C)Cc2ccc(Oc3ccccc3)cc2)Oc2ccc(NC(=O)Nc3cccc4ccccc34)cc2CC1=O	inactive: 1.26%
Cc1ccc(NC(=O)c2cccc3c2C(=O)N(C2CCCCC2)C3)c(C)c1	inactive: 0.767%
FC(F)(F)c1cccc(NCc2cn3cccnc3n2)c1	inactive: 0.0714%
OC[C@H]1O[C@@H]2O[C@H]3[C@H](O)[C@@H](O)[C@@H](O[C@H]4[C@H](O)[C@@H](O)[C@@H](O[C@H]5[C@H](O)[C@@H](O)[C@@H](O[C@H]6[C@H](O)[C@@H](O)[C@@H](O[C@H]7[C@H](O)[C@@H](O)[C@@H](O[C@H]1[C@H](O)[C@H]2O)O[C@@H]7CO)O[C@@H]6CO)O[C@@H]5CO)O[C@@H]4CO)O[C@@H]3CO	inactive: -0.216%
Cc1cccc(NC(=O)C2CCCN(S(=O)(=O)c3c(C)nn(C)c3C)C2)n1 (stereo unspecified)	inactive: 0.129%
Cc1noc(C)c1COc1ccc(C(=O)OC(C)C(=O)Nc2ccc(N3CCOCC3)cc2)cc1 (stereo unspecified)	inactive: 0.0949%
O=C(NCc1ccccc1Br)c1cccc2c1C(=O)c1ccc(N3CCC(Cc4ccccc4)CC3)cc1S2(=O)=O	inactive: 0.568%
CCN1c2ccccc2-c2nc3ccccc3n2C1c1ccccn1 (stereo unspecified)	inactive: 0.416%
Cn1nnnc1SCC(=O)NCC(=O)c1ccccc1	inactive: 0.00764%
Cc1ccc(C)c(Cn2c(C(=O)OC(C)C)cc3c2ccn3C)c1	inactive: -0.102%
O=C(CCN1C(=O)/C(=C/c2ccc(F)cc2)SC1=S)N[C@@H](CO)Cc1ccccc1	inactive: -0.0269%
C[C@H](CO)N1C[C@H](C)[C@@H](CN(C)S(=O)(=O)c2cccs2)Oc2c(NC(=O)CCC(F)(F)F)cccc2C1=O	inactive: -1.42%

SMILES	activity change, negative = inhibition
O=c1c2ccccc2c(C=NCCCN2CCOCC2)c(O)n1Cc1ccccc1	inactive: 0.813%
CC(C)NC(=O)N(C)C[C@H]1Oc2ccc(NS(=O)(=O)c3ccccc3)cc2C(=O)N([C@H](C)CO)C[C@H]1C	inactive: 0.293%
Cc1cc(NS(=O)(=O)c2ccc(Nc3nc(-c4sc(N)nc4C)cs3)cc2)no1	inactive: 0.426%
O=C(c1cccc(C(F)(F)F)c1)N1CCCC1	inactive: -1.01%
O=C(Nc1c(Cl)cccc1Cl)c1cc(-c2ccco2)on1	inactive: -0.602%
COc1ccc(CNCC(=O)Nc2sccc2C#N)cc1	inactive: -0.369%
COc1ccc(OC)c(Nc2nc(-c3cccs3)cs2)c1	inactive: -0.322%
O=C1NC(=S)N/C1=C/c1cc2c(cc1[N+](=O)[O-])OCO2	inactive: -0.112%
Cc1ccc(CNC(=O)CCC2CCCN(Cc3ccc4cccc(F)c4n3)C2)o1 (stereo unspecified)	inactive: 0.3%
COc1ccc(C(=O)NCc2nnc(SCC(=O)N3CCc4ccccc43)o2)cc1OC	inactive: -0.675%
C#CCOCCOCCOCCNc1nc(N2CCN(C(=O)[C@H](CCCCN)n3cc(CN)nn3)CC2)nc(N2CCN(C(=O)[C@H](CCC(=O)O)n3cc([C@@H](N)CCSC)nn3)CC2)n1	inactive: -0.309%
COCCNC(=S)N1CCN(C)CC1	inactive: 0.121%
COc1ccc(C(C(C(=O)c2ccco2)N2CCOCC2)N2CCOCC2)cc1 (stereo unspecified)	inactive: -0.449%
c1cc2c(cc1C1CCCCC1)c1c3n2CCCNC3CCC1 (stereo unspecified)	inactive: -0.199%
CC1(C)CC(=O)C2=C(C1)OC(N)=C(C#N)C2C#Cc1ccccc1 (stereo unspecified)	inactive: 0.109%
COc1ccc(CCNC(=O)c2cccc(NS(=O)(=O)c3ccccc3F)c2)cc1OC	inactive: 0.204%
CC(C)c1ccc(NC2CCCN(C(=O)CCN3CCCCC3=O)C2)cc1 (stereo unspecified)	inactive: 0.859%
CCOC(=O)c1c(S(=O)(=O)N2CCN(c3ccc(F)cc3)CC2)c(C)n(C)c1C	inactive: 0.311%
CCOC(=O)c1[nH]c(CSc2nnnn2-c2ccccc2C)c(C(=O)OCC)c1C	inactive: 0.233%
COc1ccc(/C=C(/C(=O)NCc2ccccc2)c2ccccc2)cc1	inactive: 0.155%
O=C(O)CSc1nnc(COc2cccc3cccnc23)n1-c1cccc(C(F)(F)F)c1	inactive: 0.166%

SMILES	activity change, negative = inhibition
Cc1nnc(N2C(=O)C(=O)/C(=C(/O)c3ccc4c(c3)CC(C)O4)C2c2ccccc2F)s1 (stereo unspecified)	inactive: 0.641%
O=C(NCC1CCCO1)Nc1ccccc1 (stereo unspecified)	inactive: -0.325%
O=C(Nc1ccc(-c2csc(Nc3ccc(Cl)cc3)n2)cc1)c1ccccc1	inactive: -0.106%
O=C(CC1C[C@H](C(=O)N2CCCCC2)[C@@]2(CCc3ccccc3)c3[nH]c4ccccc4c3CCN2C1=O)NCCC1=CCCCC1 (stereo partly specified)	inactive: 0.41%
Nc1ncnc2c1ncn2[C@@H]1O[C@H](CNCC#Cc2ccccc2)[C@@H](O)[C@H]1O	inactive: 0.255%
COc1ccc(NC(=O)c2cccc(N3C(=O)C4CC=C(C)CC4C3=O)c2)c(OC)c1 (stereo unspecified)	inactive: 1.19%
COc1cc(-c2nnco2)cc(OC)c1OC	inactive: -0.379%
COc1ccccc1OCCOCCn1cnc2ccccc2c1=O	inactive: -0.761%
COc1ccc(-c2cc3c(=O)n(CC(=O)NCc4cccnc4)nc(C)n3n2)cc1	inactive: 0.0429%
COc1ccc(C(=O)N2CCC(C(=O)NCc3ccccn3)CC2)cc1	inactive: 0.0097%
CC(=O)c1c(Nc2ccccc2)sc(C(=O)c2ccccc2)c1C	inactive: -0.4%
O=C(Cn1c(=O)sc2ccccc21)NCc1ccco1	inactive: 0.819%
CCC(C)C(NC(=O)OC(C)(C)C)C(=O)NC(C(=O)N1CCCC1C(N)=O)C(C)CC (stereo unspecified)	inactive: 0.796%
COC(=O)C1CCN(C(=O)COC(=O)COc2ccc(C#N)cc2)CC1	inactive: -0.153%
CCOc1cc(NC(=O)c2ccco2)c(OCC)cc1NC(=O)c1ccco1	inactive: 0.0887%
Cc1ccccc1C(=O)OCCCN=C1NS(=O)(=O)c2ccccc21	inactive: -0.82%
COc1cccc(C(c2c(C)[nH]n(-c3ccccc3)c2=O)c2c(C)[nH]n(-c3ccccc3)c2=O)c1O	inactive: 0.24%
C[C@H](CO)N1C[C@H](C)[C@@H](CN(C)Cc2ccc(Cl)c(Cl)c2)Oc2c(NS(=O)(=O)c3cn(C)cn3)cccc2C1=O	inactive: -0.162%

Structural class, the compounds so far containing an NH in an aromatic ring (5)
SMILES	activity change, negative = inhibition
N#CCN1CCC(c2cc(-c3ccco3)n[nH]2)CC1	inactive: 0.338%
CCn1c(=O)c(-c2nc3ccccc3[nH]2)c(O)c2ccccc21	inactive: 0.252%
CCOC(=O)c1[nH]c(CSc2nnnn2-c2ccccc2C)c(C(=O)OCC)c1C	inactive: 0.233%
O=C(CC1C[C@H](C(=O)N2CCCCC2)[C@@]2(CCc3ccccc3)c3[nH]c4ccccc4c3CCN2C1=O)NCCC1=CCCCC1 (stereo partly specified)	inactive: 0.41%
COc1cccc(C(c2c(C)[nH]n(-c3ccccc3)c2=O)c2c(C)[nH]n(-c3ccccc3)c2=O)c1O	inactive: 0.24%

— PubChem BioAssay AID485318 (Broad Institute, 2010)
